# In PubChem BioAssay AID540276 (National Center for Advancing Translational Sciences (NCATS), 2011):
# About 5,400 (1.8%) of roughly 300,000 compounds were called active. The inconclusive results got no clear call from the source; some entries with a clear call stand among them for comparison. Calls come from the whole dose curve; tested in HEK293 cells. Potencies of inconclusive entries are doubtful fits and often do not repeat.
# Experiment: qHTS for inhibitors of binding or entry into cells for Marburg Virus
# Settings: Marburg virus pseudotyped entry inhibition, cell reporter; activity change, negative = inhibition: at 37.8 µM (top of the series) unless noted
# % is set by controls: 0 for no effect and ±100 for the full control effect; potency is the fitted concentration of half-maximal effect.
Compound,Potency,"activity change, negative = inhibition"
Clc1ccccc1-c1nnc2sc(-c3ccc4c(c3)OCO4)nn12,"inconclusive: 29.1 µM [inhibitor, single point]",
Cc1nn2cc(-c3ccc(Cl)cc3)cnc2c1Br,"inconclusive: 17.8 µM [inhibitor, partial curve, poor fit]",
C#CCSc1nncn1C(=O)/C=C/c1ccccc1,,inactive: 0.949%
COc1ccc(C(=O)COC(=O)c2cc([N+](=O)[O-])ccc2N2CCOCC2)c(OC)c1,active: 2.24 µM,
COc1cccc(C2=NOC(C(=O)NCc3ccccn3)C2)c1 (configuration not stated),,inactive: -3.54%
O=C(NC1CC1)c1ccc(C2SCC(=O)N2Cc2ccccc2)cc1 (configuration not stated),"inconclusive: 35.5 µM [activator, single point]",
CC(C)c1ccc(NC(=O)Cn2c(=O)n(CC3CCC(C(=O)NCCc4ccccc4)CC3)c(=O)c3ccccc32)cc1 (configuration not stated),,inactive: -0.438% [at 46.1 µM]
Cc1ccc(S(=O)(=O)CC(=O)N(CCCN2CCOCC2)c2nc3c(F)cccc3s2)cc1,,inactive: 3.73% [at 46.1 µM]
Cc1ccccc1NC(=NCCCN1CC1)Nc1ccccc1C,active: 2.24 µM,
CC(C)CN(C(=O)CSc1nc2ccccc2[nH]1)C1CCS(=O)(=O)C1 (configuration not stated),,inactive: 9.99%
CC1(C)OC(c2ccccc2)=C/C(=C/C=C2C(=O)NC(=O)NC2=O)O1,,inactive: -18.3%
O=c1c2ccccc2oc2cc(Br)ccc12,"inconclusive: 22.4 µM [activator, single point]",
COc1cc(OC)cc(C(=O)Nc2nc(-c3ccccc3)c(-c3ccccc3)o2)c1,active: 20.6 µM,
Cn1c(Sc2nc3ccccc3n2C)nc2ccccc21,"inconclusive: 18.3 µM [inhibitor, single point]",
COc1ccc(-c2cc(=O)c3c(C)cc(O)cc3o2)cc1,"inconclusive: 15.8 µM [inhibitor, single point]",
Cn1ncc(Br)c1C(=O)N1CCCCCC1,"inconclusive: 7.08 µM [activator, full curve, poor fit]",
CC(CC(=O)c1cccs1)CC(=O)c1cccs1,"inconclusive: 10.3 µM [activator, partial curve, poor fit]",
N=c1n(CC(=O)c2ccc([N+](=O)[O-])cc2)c2ccccc2n1Cc1ccccc1Cl,"inconclusive: 35.5 µM [inhibitor, partial curve, poor fit]",
Cc1ccsc1C(=O)C1CCCN(Cc2cccc(-n3cccn3)c2)C1 (configuration not stated),"inconclusive: 12.6 µM [inhibitor, partial curve, poor fit]",
O=C(c1ccccc1)c1c[nH]c2ccccc12,"inconclusive: 11.2 µM [activator, single point]",
C/C(CC(=O)Nc1cccc2c1CCCC2)=N\NC(=O)c1ccccc1N,,inactive: 13.6%
CN(C)CC(O)COc1cccc(OCC(O)CN(C)C)c1 (configuration not stated),"inconclusive: 20 µM [inhibitor, single point]",
Cc1ccc(-c2nc(S(=O)(=O)c3ccc(F)cc3)c(SCC(=O)NCC3CCCO3)o2)cc1 (configuration not stated),"inconclusive: 1.26 µM [activator, single point]",
c1ccc(CCCN2CCOCC2)cc1,"inconclusive: 6.31 µM [inhibitor, single point]",

# 3 successive entries from above:
Compound,Potency,"activity change, negative = inhibition"
CC1(C)OC(c2ccccc2)=C/C(=C/C=C2C(=O)NC(=O)NC2=O)O1,,inactive: -18.3%
O=c1c2ccccc2oc2cc(Br)ccc12,"inconclusive: 22.4 µM [activator, single point]",
COc1cc(OC)cc(C(=O)Nc2nc(-c3ccccc3)c(-c3ccccc3)o2)c1,active: 20.6 µM,

# Next structures follow.

Compound,Potency,"activity change, negative = inhibition"
CCn1c(SCC(=O)NNC(=S)Nc2ccc(C)cc2)nnc1-c1ccc(Cl)cc1,"inconclusive: 7.94 µM [inhibitor, partial curve, poor fit]",
COc1ccccc1C(=O)Nc1ccc2nc(SCCOc3ccccc3C)sc2c1,,inactive: 9.99% [at 46.1 µM]
CC(=O)NCCNS(=O)(=O)c1ccc(C)c([N+](=O)[O-])c1,,inactive: 2.34% [at 46.1 µM]
CCc1nnc(NC(=O)CN2C(=O)NC3(CCCC3)C2=O)s1,"inconclusive: 0.398 µM [inhibitor, full curve, poor fit]",
C=CCn1cccc(/C=C/C(=O)c2ccc(C(C)(C)C)cc2)c1=S,"inconclusive: 11.2 µM [inhibitor, partial curve, poor fit]",
CC(=O)N1CCN(CC(=O)Nc2cc(F)ccc2C)CC1,"inconclusive: 0.794 µM [inhibitor, single point]",
CCC1Oc2ccc(C)cc2N(CC(=O)N(Cc2ccc3c(c2)OCO3)CC2CCCO2)C1=O (configuration not stated),"inconclusive: 14.6 µM [inhibitor, single point]",
O=C(O)C(Cc1ccccc1)N1C(=O)c2c(Cl)c(Cl)c(Cl)c(Cl)c2C1=O (configuration not stated),"inconclusive: 0.355 µM [activator, partial curve, poor fit]",
CN(C)c1cccc(C(=O)N2CCC(c3c[nH]c4ccccc34)(c3c[nH]c4ccccc34)CC2)c1,,inactive: -26.2% [at 46.1 µM]
Cc1nccnc1Sc1ccccc1,"inconclusive: 14.1 µM [activator, partial curve, poor fit]",
COc1cccc(C(=O)N2CCC(C(=O)Nc3cccc(Cl)c3)CC2)c1,,inactive: -4.48% [at 46.1 µM]
O=C(N/N=C/c1ccc(Br)s1)c1cccs1,,inactive: 0.545% [at 46.1 µM]
CSc1ccc(Cl)c(C(=O)Nc2ccc(C)cn2)c1,"inconclusive: 10 µM [inhibitor, partial curve, poor fit]",
COc1nccnc1NS(=O)(=O)c1ccc(NC(=S)NC(=O)/C=C/c2ccccc2)cc1,"inconclusive: 1 µM [inhibitor, single point]",
O=C1CCSc2ccc(Cl)cc2N1Cc1cccc(Cl)c1,"inconclusive: 25.1 µM [inhibitor, single point]",
C#CCSc1ncc(-c2ccccc2)cn1,"inconclusive: 2.51 µM [activator, partial curve, poor fit]",
C/C(Cl)=C\Cn1c(O)c(N=NC(N)=S)c2ccccc21,active: 10 µM,
O=C(CN(CCO)c1ccccc1)Nc1cccc(S(=O)(=O)N2CCCC2)c1,"inconclusive: 35.5 µM [inhibitor, single point]",
FC(F)(F)c1cnc2c(-c3ccccc3)n[nH]c2c1,"inconclusive: 0.562 µM [inhibitor, full curve, poor fit]",
NS(=O)(=O)c1ccc2nc(NC(=O)Nc3ccc(F)cc3)sc2c1,"inconclusive: 1.26 µM [activator, full curve]",
O=C1CC(C(=O)N2CCc3ccccc32)CN1c1ccc(F)cc1 (configuration not stated),"inconclusive: 4.47 µM [inhibitor, full curve, poor fit]",
O=C(NCCN1CCCCC1)Nc1cccc(Cl)c1Cl,"inconclusive: 35.5 µM [inhibitor, single point]",
CC(C)C(C(=O)OCC(=O)c1cccc([N+](=O)[O-])c1)N1C(=O)[C@@H]2[C@H]3CC[C@H](C3)[C@@H]2C1=O (some centres not stated),"inconclusive: 6.31 µM [inhibitor, single point]",
CC12CCC(C(=O)NCc3ccccc3)(OC1=O)C2(C)C (configuration not stated),"inconclusive: 1.78 µM [activator, single point]",

Compound,Potency,"activity change, negative = inhibition"
Cc1ccc2c(c1)C(=O)CC(c1ccccc1)S2 (configuration not stated),"inconclusive: 10 µM [inhibitor, partial curve, poor fit]",
O=C(COC(=O)C1=COCCO1)Nc1cc(Cl)c(Cl)cc1Cl,,inactive: 17.6%
COc1ccc(/C=N/NC(=O)c2sc(C)nc2C)cc1,,inactive: -12.2% [at 46.1 µM]
CCOC(=O)c1c(-c2ccc(C)cc2)csc1NC(=O)c1cc(=O)c2cc(C)ccc2o1,,inactive: -0.567% [at 46.1 µM]
COCc1c(C(=O)NC2CCCCCC2)oc2ccccc12,,inactive: -1.74% [at 46.1 µM]
CC(=O)Nc1ccc(S(=O)(=O)N2CCC(N(C)CCC(C)C)CC2)cc1,"inconclusive: 3.16 µM [activator, single point]",
O=C(Nc1ccnn1C1CCN(C(=O)c2cnsn2)CC1)c1cccc(F)c1,,inactive: 7.02%
COc1ccc2ccccc2c1CN1CCN(C(=O)c2ccco2)CC1,"inconclusive: 15.8 µM [inhibitor, single point]",
Cc1ccccc1N1CCN(c2ncnc3scc(-c4cccs4)c23)CC1,active: 23.1 µM,
CC(C)c1ccc(NC(=O)CCCN2C(=S)NC(C)(C)CC2C)cc1 (configuration not stated),,inactive: -3.35% [at 46.1 µM]
Cc1ccc(-c2cc(C(=O)NCCCN3CCCC3)c3ccccc3n2)cc1C,active: 11.2 µM,
Cc1ccc(NC(=S)Nc2ccc(Cl)c(Cl)c2)c(OC(F)F)c1,"inconclusive: 35.5 µM [inhibitor, single point]",
CCc1ccc(NC(=O)CN(C)S(=O)(=O)c2ccc3[nH]c(=O)oc3c2)cc1,,inactive: -1.72% [at 46.1 µM]
COc1cc(C2CC(=O)Nc3ccccc3S2)cc(OC)c1OC (configuration not stated),"inconclusive: 13 µM [inhibitor, partial curve, poor fit]",
C=CCC(C)(NCc1ccccc1)c1ccc(C)cc1 (configuration not stated),"inconclusive: 11.2 µM [inhibitor, single point]",
C/C(=N\NC(=O)c1c(Cl)c(C)nn1C)c1ccc(NC(=O)c2ccncc2)cc1,,inactive: 8.58%
Fc1ccc(CSc2nnc(-c3cccs3)o2)cc1,"inconclusive: 29.1 µM [activator, single point]",
COC(=O)c1ccc(NC(=O)C(OC)c2ccccc2)cc1 (configuration not stated),,inactive: 16.9% [at 46.1 µM]
Cc1ccccc1NC(=O)COC(=O)CCSc1ccccc1,"inconclusive: 5.01 µM [inhibitor, partial curve, poor fit]",
Cc1onc(-c2c(F)cccc2Cl)c1C(=O)Nc1ccccc1N1CCOCC1,,inactive: -29.6%
Cc1cc(C(=O)N/N=C/c2cccc([N+](=O)[O-])c2)c(C)n1-c1ccccc1,"inconclusive: 35.5 µM [inhibitor, single point]",
O=S(=O)(NCC1(N2CCOCC2)CCCCC1)c1ccc(F)cc1,"inconclusive: 10 µM [activator, partial curve, poor fit]",
COc1ccc(CC(=O)Nc2cccc(C(=O)NN3C(=O)c4ccccc4C3=O)c2C)cc1,"inconclusive: 35.5 µM [activator, single point]",
CCN(CC)S(=O)(=O)c1ccc(N2CCOCC2)c(NC(=O)c2ccccc2F)c1,"inconclusive: 7.08 µM [inhibitor, partial curve, poor fit]",
